Reference: PubChem BioAssay AID1259405 (NCATS, 2018)
Here is an unselected part of about 50,000 deposited reagents. About 4,000 of all reagents (8%) count as active. 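Mouse siRNA library applied to hamster cells; one well for each siRNA.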 Reagents against one gene are numbered here.

- Aim: 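Silenced genes that increase secreted GFP made by CHO cells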 (primary screen)
- Cell system: Chinese hamster CHO-K1 ovary cells with stable secreted eGFP expression
- Reagents: single siRNA against mouse genes, 0.8 pmol siRNA per well (2 µl of 400 nM stock)
- Timing: 3 days
- Measurement: 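Per-well intracellular GFP measured by laser scanning cytometry, plus viability from ATP luminescence, each relative to plate median of non-targeting control wells, in %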
- Direction: GFP, % of control: higher = more GFP per well, higher productivity; viability (ATP), % of control: higher = more viable cells (more ATP)
- Call rule: 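a knock-down is called active if GFP reaches 120% or more of non-targeting control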

| Gene | reagent | GFP, % of control | viability (ATP), % of control | call |
| --- | --- | --- | --- | --- |
| Defb12 | 1 | 72.8 | 83.7 | inactive |
| Defb12 | 2 | 86.9 | 52.3 | inactive |
| Defb12 | 3 | 88.1 | 72.9 | inactive |
| Tas2r105 | 1 | 63.9 | 67.8 | inactive |
| Tas2r105 | 2 | 62.4 | 75.9 | inactive |
| Tas2r105 | 3 | 89.5 | 99.3 | inactive |
| Crnkl1 | 1 | 89.6 | 99.2 | inactive |
| Crnkl1 | 2 | 77.3 | 63.3 | inactive |
| Crnkl1 | 3 | 47.7 | 68.5 | inactive |
| Itgav | 1 | 65.7 | 60.5 | inactive |
| Itgav | 2 | 144 | 101 | active |
| Esrp2 | 1 | 69 | 63.7 | inactive |
| Esrp2 | 2 | 88.7 | 44.7 | inactive |
| Esrp2 | 3 | 41.2 | 21.1 | inactive |
| Psmb8 | 1 | 122 | 121 | active |
| Psmb8 | 2 | 54.6 | 46 | inactive |
| Psmb8 | 3 | 71.2 | 85.2 | inactive |
| Pot1a | 1 | 71.1 | 66.1 | inactive |
| Pot1a | 2 | 87.2 | 78.7 | inactive |
| Pot1a | 3 | 70.2 | 62.5 | inactive |
| Mrpl23 | 1 | 27.3 | 24.6 | inactive |
| Mrpl23 | 2 | 48.1 | 31.6 | inactive |
| Mrpl23 | 3 | 107 | 49.3 | inactive |
| Depdc1a | 1 | 79.7 | 80.7 | inactive |
| Depdc1a | 2 | 74.1 | 82.7 | inactive |
| Depdc1a | 3 | 51 | 54.9 | inactive |
| BC002059 | 1 | 71.8 | 66.4 | inactive |
| BC002059 | 2 | 55.9 | 73.1 | inactive |
| BC002059 | 3 | 72.9 | 91.2 | inactive |
| Reg2 | 1 | 52.6 | 66.9 | inactive |
| Reg2 | 2 | 0.859 | 2.91 | inactive |
| Reg2 | 3 | 59.1 | 60.7 | inactive |
| Mrgpra8 | 1 | 91.6 | 72.8 | inactive |
| Mrgpra8 | 2 | 65.3 | 80.5 | inactive |
| Mrgpra8 | 3 | 69.8 | 50.4 | inactive |

Laid out differently: 2 of the entries above
Gene	reagent	GFP, % of control	viability (ATP), % of control	call
Pot1a	3	70.2	62.5	inactive
Mrpl23	1	27.3	24.6	inactive
